Measured values as given in publication PMC12274846.
No constants are given. Whether binding was seen depends on the method and setting. In cells and extracts the contact can be indirect. Some binding calls cover weakened binding; strength is not graded here.

Biological target: early growth response 2 (Egr2) (human (endogenous in Hep3B)) (UniProt P11161)
Assay: co-IP; endogenous Egr1 or Egr2 immunoprecipitated (Universal Magnetic Co-IP kit, magnetic protein G beads, 2 h at 4 °C) from Hep3B whole-cell extracts (500 μg total protein) after 0, 2 or 8 h hypoxia (1% O2); immunoblotted for HIF-1α or HIF-2α

Substance | binding
hypoxia inducible factor 1 alpha (HIF-1α) (from UniProt Q16665 1-826) | no binding
hypoxia inducible factor 2 alpha (HIF-2α) (from UniProt Q99814 1-870) | binds
